Literature values in patent publication US9283256B2, “Antibacterial composition comprising Salvia extracts” (Botanic Century (Beijing) Co. Ltd., priority 2007, dated 2016).
At least one compound was matched to its structure with a doubt left.

Test system: Staphylococcus aureus
Details: cited from earlier work

For `C[C@H]1COC2=C1C(=O)C(=O)c1c2ccc2c1CCCC2(C)C` [D, Cryptotashinone], the “inhibition effect, Staphylococcus aureus versus Escherichia coli” value is listed as “better inhibition effect”.
